Key:
[1] = system: early stage gametocytes (stage I to IIb/III) of P. falciparum line NF54^Pfs16; assay: Gametocyte luciferase assay, early stage; format: cell-based, Plasmodium falciparum; details: toxicity of the intermediate alone
From the text: (§1) To investigate a potential role of CoA biosynthesis for host to vector transmission of the malaria parasite, we investigated the activity of our compounds on P. falciparum gametocytes, the sexual stages of P. falciparum, essential for malaria transmission. […] Parasite stage-specificity and gametocytocidal activity of the compounds was therefore investigated, utilizing a luciferase-based approach on early stage (development from stage I to IIb/III [30]) and late stage (IV to V [51]) gametocytes.
(§2) Induction of P. falciparum gametocyte differentiation and gametocyte culturing were performed as previously described. Compound activity against early stage gametocytes (covering the development from stage I to IIb/III) and late stage gametocytes (stage IV to V) of the recombinant P. falciparum line NF54^Pfs16 was assessed in concentration-response assays, in two experimental replicates consisting of two technical repeats each, at a highest concentration of 40 μM, as described earlier.

[2] = system: late stage gametocytes (stage IV to V) of P. falciparum line NF54^Pfs16; assay: Gametocyte luciferase assay, late stage; format: cell-based, Plasmodium falciparum; details: toxicity of the intermediate alone
From the text: as §1, §2

[3] = system: T. b. brucei trypomastigote; assay: T. b. brucei resazurin (Alamar Blue) viability assay; format: cell-based; details: Trypanosoma brucei, read-out: IC50 of pathway intermediate on T. b. brucei
Protocol: Compound activity against two members of another clinically important group of parasites, the kinetoplastids T. cruzi and T. b. brucei was determined. The sensitive high content imaging assay used to determine compound activity against T. cruzi assesses the intracellular amastigote life form of the parasite in the 3T3 host cell. […] The T. b. brucei assay employs the REDOX indicator Alamar Blue to assess viability, which was developed into a 384-well assay format.
Compound activity against T. b. brucei was assessed in a resazurin-based viability assay in concentration-response assays, without technical repeats, in two experimental replicates at a highest concentration of 40 μM, as previously described.

[4] = system: P. falciparum asexual blood stage; assay: microbe, parasite or virus in culture; details: Plasmodium falciparum, read-out: IC50 of pathway intermediate on asexual blood stage P. falciparum
Protocol: An imaging based assay was utilised to assess the chemical rescue on asexual stages of P. falciparum as described previously. All the pathway intermediates were purchased from Sigma. CoA and dP-CoA were dissolved in sterile distilled water to obtain a 20 mM stock solution, which was then aliquoted and stored at -20 °C until use. […] Each pathway intermediate was tested on the parasites at a range of concentrations to assess potential toxicity. […] On early stage P. falciparum gametocytes the same concentrations as for CoA were tested for dP-CoA; against asexual blood stage P. falciparum, late stage gametocytes and Trypanosoma b. brucei five dP-CoA concentrations were tested (2 mM, 1.5 mM, 1 mM, 0.75 mM and 0.5 mM).

## CC(C)(CO)[C@@H](O)C(=O)NCCC(=O)NCCSSCCNC(=O)CCNC(=O)[C@H](O)C(C)(C)CO [pantethine, reference compound]
[1]
  concentration showing no toxic effect, early stage gametocytes: up to 10 mM
[2]
  concentration showing no toxic effect, late stage gametocytes: up to 10 mM
[3]
  IC50: 1.2 mM
[4]
  IC50: 5 mM

— PMC5114727, “Biological characterization of chemically diverse compounds targeting the Plasmodium falciparum coenzyme A synthesis pathway” (Parasites & Vectors, 2016)
